# Measured values reported in the supplement of paper PMC10849652.
# Sequences of proteins named here, by UniProt entry; tags and fusion partners are left off. A change or cut given only in a name is not applied to a line headed by its entry.
# UniProt Q9BTZ2: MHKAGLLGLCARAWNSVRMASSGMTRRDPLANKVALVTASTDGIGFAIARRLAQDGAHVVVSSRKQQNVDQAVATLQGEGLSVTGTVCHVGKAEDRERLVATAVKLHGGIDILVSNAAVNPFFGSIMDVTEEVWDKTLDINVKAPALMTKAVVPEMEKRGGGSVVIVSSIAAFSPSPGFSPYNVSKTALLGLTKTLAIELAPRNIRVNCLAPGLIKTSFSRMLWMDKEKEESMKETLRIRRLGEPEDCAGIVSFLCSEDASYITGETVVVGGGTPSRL
# UniProt O75064: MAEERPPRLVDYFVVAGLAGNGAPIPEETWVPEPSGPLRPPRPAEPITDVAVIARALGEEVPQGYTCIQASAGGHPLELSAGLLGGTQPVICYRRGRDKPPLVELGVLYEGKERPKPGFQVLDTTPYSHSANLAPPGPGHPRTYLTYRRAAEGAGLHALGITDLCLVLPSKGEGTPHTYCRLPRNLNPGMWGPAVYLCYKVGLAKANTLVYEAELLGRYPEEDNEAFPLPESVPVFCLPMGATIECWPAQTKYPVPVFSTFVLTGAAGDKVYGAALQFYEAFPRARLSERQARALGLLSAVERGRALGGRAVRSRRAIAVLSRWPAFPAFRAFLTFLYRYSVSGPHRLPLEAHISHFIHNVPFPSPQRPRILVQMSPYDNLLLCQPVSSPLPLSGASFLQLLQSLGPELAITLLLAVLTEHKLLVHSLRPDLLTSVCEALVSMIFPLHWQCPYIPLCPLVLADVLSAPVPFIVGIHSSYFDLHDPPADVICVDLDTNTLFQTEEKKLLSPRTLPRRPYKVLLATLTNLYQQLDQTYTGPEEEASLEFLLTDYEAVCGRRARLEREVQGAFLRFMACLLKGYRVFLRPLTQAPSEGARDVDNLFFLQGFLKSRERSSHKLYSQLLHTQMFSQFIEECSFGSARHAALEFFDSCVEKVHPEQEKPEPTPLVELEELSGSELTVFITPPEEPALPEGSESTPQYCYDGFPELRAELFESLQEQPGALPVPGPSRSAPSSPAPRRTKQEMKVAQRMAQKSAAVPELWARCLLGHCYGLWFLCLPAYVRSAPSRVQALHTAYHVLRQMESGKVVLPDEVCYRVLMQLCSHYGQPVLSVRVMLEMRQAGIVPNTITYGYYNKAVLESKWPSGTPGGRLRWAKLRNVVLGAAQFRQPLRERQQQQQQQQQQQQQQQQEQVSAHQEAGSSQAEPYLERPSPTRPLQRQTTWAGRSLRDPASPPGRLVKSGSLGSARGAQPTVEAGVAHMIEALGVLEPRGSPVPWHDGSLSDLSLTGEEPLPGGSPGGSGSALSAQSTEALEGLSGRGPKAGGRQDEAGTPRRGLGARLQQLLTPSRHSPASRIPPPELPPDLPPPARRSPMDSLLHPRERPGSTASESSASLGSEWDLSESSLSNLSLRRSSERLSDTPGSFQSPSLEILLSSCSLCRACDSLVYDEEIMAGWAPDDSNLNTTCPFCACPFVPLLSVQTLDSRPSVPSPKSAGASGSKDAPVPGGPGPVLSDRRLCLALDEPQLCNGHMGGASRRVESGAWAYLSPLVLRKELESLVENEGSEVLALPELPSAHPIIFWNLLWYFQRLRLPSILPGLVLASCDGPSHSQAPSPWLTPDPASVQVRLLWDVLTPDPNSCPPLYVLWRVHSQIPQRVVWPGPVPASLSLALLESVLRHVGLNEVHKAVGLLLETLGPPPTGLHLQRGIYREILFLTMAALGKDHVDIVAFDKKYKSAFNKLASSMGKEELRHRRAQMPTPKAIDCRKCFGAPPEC
# UniProt O60832: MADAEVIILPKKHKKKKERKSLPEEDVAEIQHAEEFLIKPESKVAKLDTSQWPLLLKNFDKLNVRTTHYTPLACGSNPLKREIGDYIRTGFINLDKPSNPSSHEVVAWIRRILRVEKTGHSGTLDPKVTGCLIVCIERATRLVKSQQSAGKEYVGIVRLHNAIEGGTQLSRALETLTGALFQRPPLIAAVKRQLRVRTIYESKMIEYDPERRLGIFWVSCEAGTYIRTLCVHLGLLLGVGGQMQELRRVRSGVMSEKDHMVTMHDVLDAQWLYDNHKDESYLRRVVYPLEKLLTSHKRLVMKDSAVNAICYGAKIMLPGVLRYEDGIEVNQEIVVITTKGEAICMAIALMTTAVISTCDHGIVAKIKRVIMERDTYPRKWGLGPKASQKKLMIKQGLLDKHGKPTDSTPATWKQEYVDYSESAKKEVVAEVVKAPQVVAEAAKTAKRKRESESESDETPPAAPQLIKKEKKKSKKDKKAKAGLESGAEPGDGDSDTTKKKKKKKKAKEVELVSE
# UniProt Q9BUN8: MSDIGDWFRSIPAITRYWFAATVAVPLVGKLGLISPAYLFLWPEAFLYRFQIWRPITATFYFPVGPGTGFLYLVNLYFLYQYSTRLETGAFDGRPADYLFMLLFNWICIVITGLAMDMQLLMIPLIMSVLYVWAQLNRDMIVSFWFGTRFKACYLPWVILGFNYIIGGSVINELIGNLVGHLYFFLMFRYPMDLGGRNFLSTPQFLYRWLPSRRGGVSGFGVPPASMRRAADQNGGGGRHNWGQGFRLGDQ
# UniProt Q5T1V6: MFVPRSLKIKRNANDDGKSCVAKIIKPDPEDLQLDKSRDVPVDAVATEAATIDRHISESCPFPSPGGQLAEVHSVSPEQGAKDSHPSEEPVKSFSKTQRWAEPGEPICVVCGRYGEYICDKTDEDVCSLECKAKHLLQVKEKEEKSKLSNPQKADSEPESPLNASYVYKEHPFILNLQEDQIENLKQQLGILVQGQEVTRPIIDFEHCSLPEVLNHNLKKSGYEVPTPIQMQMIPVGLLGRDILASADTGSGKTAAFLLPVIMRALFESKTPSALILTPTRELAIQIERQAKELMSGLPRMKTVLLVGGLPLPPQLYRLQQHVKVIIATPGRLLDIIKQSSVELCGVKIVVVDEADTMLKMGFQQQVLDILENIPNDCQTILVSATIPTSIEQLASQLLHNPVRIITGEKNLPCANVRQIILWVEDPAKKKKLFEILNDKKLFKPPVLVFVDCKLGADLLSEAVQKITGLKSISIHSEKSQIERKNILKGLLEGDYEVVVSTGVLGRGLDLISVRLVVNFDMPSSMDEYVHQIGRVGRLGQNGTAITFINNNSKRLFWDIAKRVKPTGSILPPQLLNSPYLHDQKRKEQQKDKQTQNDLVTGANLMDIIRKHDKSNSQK
# UniProt Q92466: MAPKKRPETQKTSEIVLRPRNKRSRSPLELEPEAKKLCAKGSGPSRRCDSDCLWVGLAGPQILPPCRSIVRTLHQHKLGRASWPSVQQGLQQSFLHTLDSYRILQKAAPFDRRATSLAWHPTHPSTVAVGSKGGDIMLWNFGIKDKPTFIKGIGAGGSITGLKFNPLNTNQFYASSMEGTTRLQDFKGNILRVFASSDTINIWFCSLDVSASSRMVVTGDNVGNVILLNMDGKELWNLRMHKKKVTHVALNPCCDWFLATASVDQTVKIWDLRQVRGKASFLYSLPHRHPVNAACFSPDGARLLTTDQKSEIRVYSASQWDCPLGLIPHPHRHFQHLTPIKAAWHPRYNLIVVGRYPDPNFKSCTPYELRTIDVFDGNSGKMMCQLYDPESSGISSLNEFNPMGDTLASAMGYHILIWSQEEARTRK
# UniProt Q6UWP2: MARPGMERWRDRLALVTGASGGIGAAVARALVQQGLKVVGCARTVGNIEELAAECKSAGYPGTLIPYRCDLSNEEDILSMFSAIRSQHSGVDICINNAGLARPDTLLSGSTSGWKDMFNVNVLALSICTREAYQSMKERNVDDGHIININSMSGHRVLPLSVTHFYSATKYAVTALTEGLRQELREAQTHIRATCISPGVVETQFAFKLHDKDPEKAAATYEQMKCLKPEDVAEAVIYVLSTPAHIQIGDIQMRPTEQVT
# UniProt Q6UX07: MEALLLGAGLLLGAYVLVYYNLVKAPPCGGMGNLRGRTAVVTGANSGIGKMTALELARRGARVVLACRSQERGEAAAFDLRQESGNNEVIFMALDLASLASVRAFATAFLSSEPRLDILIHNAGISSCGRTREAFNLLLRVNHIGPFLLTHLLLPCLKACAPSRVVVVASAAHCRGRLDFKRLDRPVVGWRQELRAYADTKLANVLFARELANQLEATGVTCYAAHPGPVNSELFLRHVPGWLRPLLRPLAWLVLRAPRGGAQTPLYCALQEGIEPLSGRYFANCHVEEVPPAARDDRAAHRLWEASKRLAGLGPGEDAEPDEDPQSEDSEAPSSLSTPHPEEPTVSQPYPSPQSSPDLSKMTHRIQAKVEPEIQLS
# UniProt Q7L2E3: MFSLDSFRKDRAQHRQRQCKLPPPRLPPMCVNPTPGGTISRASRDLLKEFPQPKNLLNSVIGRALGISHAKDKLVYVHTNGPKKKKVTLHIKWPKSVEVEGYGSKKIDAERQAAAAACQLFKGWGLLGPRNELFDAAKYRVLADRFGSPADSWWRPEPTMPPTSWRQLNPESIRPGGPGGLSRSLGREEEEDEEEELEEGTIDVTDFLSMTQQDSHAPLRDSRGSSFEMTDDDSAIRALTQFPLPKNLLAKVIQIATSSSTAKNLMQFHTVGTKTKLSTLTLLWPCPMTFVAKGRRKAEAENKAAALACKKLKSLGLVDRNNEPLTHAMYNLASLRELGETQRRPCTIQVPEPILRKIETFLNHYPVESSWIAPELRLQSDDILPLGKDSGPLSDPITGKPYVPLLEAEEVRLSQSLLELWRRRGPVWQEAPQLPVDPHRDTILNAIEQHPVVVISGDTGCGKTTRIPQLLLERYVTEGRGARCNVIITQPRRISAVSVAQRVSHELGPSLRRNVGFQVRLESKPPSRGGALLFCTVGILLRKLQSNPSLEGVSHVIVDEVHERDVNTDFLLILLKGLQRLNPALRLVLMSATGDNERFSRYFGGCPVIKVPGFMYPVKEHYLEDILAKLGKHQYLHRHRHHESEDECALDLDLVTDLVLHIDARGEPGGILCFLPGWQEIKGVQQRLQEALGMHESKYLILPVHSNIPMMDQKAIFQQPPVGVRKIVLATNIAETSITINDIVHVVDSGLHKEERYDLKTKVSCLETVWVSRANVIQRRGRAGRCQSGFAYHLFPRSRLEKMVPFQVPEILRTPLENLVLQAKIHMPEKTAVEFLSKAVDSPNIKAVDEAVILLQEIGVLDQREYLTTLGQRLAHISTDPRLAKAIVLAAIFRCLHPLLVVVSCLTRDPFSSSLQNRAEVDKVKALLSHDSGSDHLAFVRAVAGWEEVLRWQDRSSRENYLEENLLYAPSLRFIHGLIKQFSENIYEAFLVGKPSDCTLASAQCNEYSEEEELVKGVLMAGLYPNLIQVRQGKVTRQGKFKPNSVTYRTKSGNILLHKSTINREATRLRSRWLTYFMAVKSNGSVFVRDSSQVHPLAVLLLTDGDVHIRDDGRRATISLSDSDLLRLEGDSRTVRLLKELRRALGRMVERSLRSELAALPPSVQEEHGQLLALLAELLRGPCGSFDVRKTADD
# UniProt Q15392: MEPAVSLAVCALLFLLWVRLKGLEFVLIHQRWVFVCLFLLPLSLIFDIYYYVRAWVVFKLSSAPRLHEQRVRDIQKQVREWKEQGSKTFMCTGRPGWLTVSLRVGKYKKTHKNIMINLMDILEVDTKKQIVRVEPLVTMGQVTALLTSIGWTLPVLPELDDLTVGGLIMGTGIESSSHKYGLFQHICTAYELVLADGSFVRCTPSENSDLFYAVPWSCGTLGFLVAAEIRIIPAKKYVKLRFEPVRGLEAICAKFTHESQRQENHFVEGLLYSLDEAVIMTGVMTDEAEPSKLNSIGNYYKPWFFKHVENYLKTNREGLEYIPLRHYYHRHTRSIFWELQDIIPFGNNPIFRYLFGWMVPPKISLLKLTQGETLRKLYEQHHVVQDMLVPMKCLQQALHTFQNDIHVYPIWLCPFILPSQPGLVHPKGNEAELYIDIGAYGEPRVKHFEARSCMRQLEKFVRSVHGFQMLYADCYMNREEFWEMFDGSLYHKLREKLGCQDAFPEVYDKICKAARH
# UniProt Q9H0S4: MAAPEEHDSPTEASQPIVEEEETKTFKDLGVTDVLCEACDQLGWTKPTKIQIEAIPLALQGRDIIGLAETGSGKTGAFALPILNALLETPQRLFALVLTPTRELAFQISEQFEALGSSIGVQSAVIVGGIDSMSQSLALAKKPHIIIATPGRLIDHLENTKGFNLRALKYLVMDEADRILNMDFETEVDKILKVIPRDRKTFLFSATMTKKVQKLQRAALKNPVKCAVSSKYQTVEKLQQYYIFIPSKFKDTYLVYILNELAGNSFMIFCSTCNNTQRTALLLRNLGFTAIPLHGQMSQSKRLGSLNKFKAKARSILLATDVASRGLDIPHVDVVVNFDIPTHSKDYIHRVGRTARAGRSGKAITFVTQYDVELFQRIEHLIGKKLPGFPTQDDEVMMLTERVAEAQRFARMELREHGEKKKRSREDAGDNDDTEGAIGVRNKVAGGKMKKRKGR
# The list shows a part of the results.
# Assays:
# Assay in all cases: log2 fold change, soluble protein after heating vs DMSO (PISA); higher = thermal stabilisation; K562 cells, 10 uM, 30 min; active = over 0.2 and 3.5 SD of the protein, either way, in both replicates (recomputed)
# [1] = compound: CC1=C(C=C(C=C1)NC(=O)C2=CC(=CC=C2)C(C)(C)C#N)NC3=CC4=C(C=C3)N=CN(C4=O)C
# In short: (§1)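 K562 cells (2×10^6 cells/mL) were treated with 10 μM compound for 30 min, and aliquots were heated for 3 min over 48°C-58°C. Pooled aliquots were extracted in PBS with 0.5% NP-40 at 4°C, and the supernatant after 21,000xg for 90 min was measured by TMTpro 16plex LC-MS/MS with channel sums equalised. Reported thermal stability, relative to control samples and from duplicates, is a log2 fold change.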
# [2] = compound: CC1=C(C=C(C=C1)NC(=O)C2=CC(=CC=C2)N(C)C)NC(=O)C3=CC=C(C=C3)O
# In short: as §1
# [3] = compound: CC1=CC=C(C=C1)SC2=C3C=C(SC3=CN=C2)C(=O)N
# In short: as §1
# [4] = compound: CC1=NC(=CC=C1)C2=C(N=C(N2)C(C)(C)C)C3=CC4=NC=CN=C4C=C3
# In short: as §1
# [5] = compound: CCCCN(Cc1ccc(C(=O)NO)cc1)C(=O)Nc1ccccc1 [Nexturastat A]
# In short: as §1
# [6] = compound: CCCS(=O)(=O)Nc1ccc(F)c(C(=O)c2c[nH]c3ncc(-c4ccc(Cl)cc4)cc23)c1F [vemurafenib]
# In short: as §1
# [7] = compound: CCCS(=O)(=O)Nc1ccc(F)c(C(=O)c2c[nH]c3ncc(Cl)cc23)c1F
# In short: as §1
# [8] = compound: CCCc1cc(C)[nH]c(=O)c1CNC(=O)c1cc(-c2ccnc(N3CCN(C)CC3)c2)cc2c1cnn2C(C)C
# In short: as §1
# [9] = compound: CCN(CC)Cc1ccc2cc(COC(=O)Nc3ccc(C(=O)NO)cc3)ccc2c1 [givinostat]
# In short: as §1
# [10] = compound: CCN(CCCOc1ccc2c(Nc3cc(CC(=O)Nc4cccc(F)c4)[nH]n3)ncnc2c1)CCOP(=O)(O)O [barasertib]
# In short: as §1
Target,log2 fold change [1],log2 fold change [2],log2 fold change [3],log2 fold change [4],log2 fold change [5],log2 fold change [6],log2 fold change [7],log2 fold change [8],log2 fold change [9],log2 fold change [10]
DHRS4 (UniProt Q9BTZ2),inactive: -0.024,inactive: 0.031,inactive: 0.012,inactive: 0.046,inactive: -0.167,inactive: 0.013,inactive: 0.04,inactive: 0.015,inactive: -0.022,inactive: -0.005
DENND4B (UniProt O75064),inactive: 0.071,inactive: -0.025,inactive: -0.007,inactive: -0.017,inactive: 0.165,inactive: 0.013,inactive: -0.067,inactive: -0.028,inactive: -0.001,inactive: 0.04
DKC1 (UniProt O60832),inactive: -0.029,inactive: 0.006,inactive: -0.049,inactive: -0.047,inactive: 0.129,inactive: -0.03,inactive: -0.028,inactive: 0.03,inactive: 0.032,inactive: -0.095
DERL1 (UniProt Q9BUN8),inactive: -0.072,inactive: -0.006,inactive: -0.019,inactive: 0,inactive: -0.065,inactive: -0.054,inactive: -0.029,inactive: 0.003,inactive: 0.024,inactive: 0.094
DHX38 (UniProt Q92620),inactive: -0.01,inactive: 0.022,inactive: -0.035,inactive: -0.002,inactive: -0.001,inactive: -0.014,inactive: 0.002,inactive: 0.007,inactive: -0.027,inactive: 0.01
DDX6 (UniProt P26196),inactive: -0.015,inactive: 0.007,inactive: 0.001,inactive: 0.005,inactive: 0.078,inactive: -0.028,inactive: 0.016,inactive: 0.087,inactive: 0.039,inactive: -0.006
DDX59 (UniProt Q5T1V6),inactive: -0.03,inactive: 0.004,inactive: 0.044,inactive: -0.039,inactive: -0.092,inactive: 0.02,inactive: 0.068,inactive: 0.02,inactive: 0.059,inactive: -0.069
DDB2 (UniProt Q92466),inactive: -0.031,inactive: 0.085,inactive: -0.01,–,inactive: 0.028,inactive: -0.018,inactive: 0,inactive: -0.067,inactive: 0.034,inactive: -0.005
DHRS11 (UniProt Q6UWP2),inactive: 0.003,inactive: -0.002,inactive: -0.026,inactive: 0.022,inactive: -0.044,inactive: 0.016,inactive: 0.021,inactive: -0.023,inactive: 0.035,inactive: -0.016
DNAH8 (UniProt Q96JB1),inactive: -0.048,inactive: 0.095,inactive: -0.041,inactive: -0.09,inactive: 0.1,inactive: 0.059,inactive: -0.082,inactive: -0.052,inactive: 0.244,inactive: -0.046
DDX27 (UniProt Q96GQ7),inactive: -0.026,inactive: -0.057,–,inactive: -0.293,inactive: 0.249,inactive: -0.25,–,inactive: -0.142,inactive: 0.081,–
DHRS13 (UniProt Q6UX07),inactive: -0.106,inactive: 0.027,–,inactive: -0.055,–,inactive: -0.062,–,inactive: 0.084,inactive: 0.249,–
DHX30 isoform 2 (UniProt Q7L2E3),inactive: 0.02,inactive: 0.012,inactive: -0.034,inactive: 0.01,inactive: 0.332,inactive: -0.06,inactive: -0.012,inactive: 0.009,inactive: 0.023,inactive: -0.077
DHCR24 (UniProt Q15392),inactive: 0.248,inactive: 0.01,inactive: -0.003,inactive: -0.043,inactive: 0.004,inactive: -0.114,inactive: -0.012,inactive: 0.434,active: 1.21,inactive: 0.088
DDX47 (UniProt Q9H0S4),inactive: 0.084,inactive: -0.055,–,inactive: -0.11,inactive: 0.212,inactive: 0.028,–,inactive: -0.052,–,inactive: 0.127

# Some of the entries so far, with tabs.
Target	log2 fold change [1]	log2 fold change [2]	log2 fold change [3]	log2 fold change [4]	log2 fold change [5]	log2 fold change [6]	log2 fold change [7]	log2 fold change [8]	log2 fold change [9]	log2 fold change [10]
DDX59 (UniProt Q5T1V6)	inactive: -0.03	inactive: 0.004	inactive: 0.044	inactive: -0.039	inactive: -0.092	inactive: 0.02	inactive: 0.068	inactive: 0.02	inactive: 0.059	inactive: -0.069
DDB2 (UniProt Q92466)	inactive: -0.031	inactive: 0.085	inactive: -0.01	–	inactive: 0.028	inactive: -0.018	inactive: 0	inactive: -0.067	inactive: 0.034	inactive: -0.005
